# Assay results as given in the supplement of paper PMC10849652.
# Amino acid sequences for entries named in this document (tags omitted). A change or cut given only in a name is not applied to a line headed by its entry.
# UniProt P22314: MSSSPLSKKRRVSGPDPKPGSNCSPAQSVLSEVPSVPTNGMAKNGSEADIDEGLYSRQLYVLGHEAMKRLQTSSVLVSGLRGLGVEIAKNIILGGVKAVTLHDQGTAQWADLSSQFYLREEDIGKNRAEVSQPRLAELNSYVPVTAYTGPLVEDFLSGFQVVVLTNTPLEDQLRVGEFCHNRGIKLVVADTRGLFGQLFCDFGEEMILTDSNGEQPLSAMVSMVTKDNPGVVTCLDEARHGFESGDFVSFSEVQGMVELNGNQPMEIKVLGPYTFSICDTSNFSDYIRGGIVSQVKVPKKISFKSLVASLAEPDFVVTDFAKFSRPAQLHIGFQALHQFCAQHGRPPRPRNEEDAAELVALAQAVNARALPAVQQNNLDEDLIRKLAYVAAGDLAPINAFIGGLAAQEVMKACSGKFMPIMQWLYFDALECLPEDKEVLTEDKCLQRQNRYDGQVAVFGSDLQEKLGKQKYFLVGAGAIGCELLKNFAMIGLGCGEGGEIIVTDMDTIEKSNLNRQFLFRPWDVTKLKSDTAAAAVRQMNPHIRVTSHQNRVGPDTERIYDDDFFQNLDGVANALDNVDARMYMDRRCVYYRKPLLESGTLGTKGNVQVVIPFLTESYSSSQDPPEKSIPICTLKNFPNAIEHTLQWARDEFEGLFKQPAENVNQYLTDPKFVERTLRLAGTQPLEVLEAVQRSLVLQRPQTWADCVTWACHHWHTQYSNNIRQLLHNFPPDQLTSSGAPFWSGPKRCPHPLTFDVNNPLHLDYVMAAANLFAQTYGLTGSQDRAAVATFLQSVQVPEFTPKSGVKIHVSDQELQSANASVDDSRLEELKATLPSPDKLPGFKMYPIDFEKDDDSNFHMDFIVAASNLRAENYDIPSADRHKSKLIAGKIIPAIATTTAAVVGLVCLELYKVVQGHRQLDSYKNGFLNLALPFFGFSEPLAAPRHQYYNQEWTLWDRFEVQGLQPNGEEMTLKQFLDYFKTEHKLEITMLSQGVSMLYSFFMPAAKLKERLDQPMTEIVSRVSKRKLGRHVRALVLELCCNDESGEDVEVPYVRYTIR
# UniProt P07437, whole entry, looked up: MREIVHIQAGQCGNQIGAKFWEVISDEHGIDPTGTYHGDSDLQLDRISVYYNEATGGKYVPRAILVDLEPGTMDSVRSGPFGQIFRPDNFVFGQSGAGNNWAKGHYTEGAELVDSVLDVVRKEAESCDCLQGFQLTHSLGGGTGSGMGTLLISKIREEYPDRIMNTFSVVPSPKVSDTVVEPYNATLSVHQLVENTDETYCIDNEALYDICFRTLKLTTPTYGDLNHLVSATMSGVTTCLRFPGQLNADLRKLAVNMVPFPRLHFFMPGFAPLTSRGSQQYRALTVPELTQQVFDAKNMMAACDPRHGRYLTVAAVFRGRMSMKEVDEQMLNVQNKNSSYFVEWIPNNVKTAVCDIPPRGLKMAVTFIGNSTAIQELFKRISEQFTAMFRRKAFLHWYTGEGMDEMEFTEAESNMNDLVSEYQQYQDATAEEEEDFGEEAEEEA
# UniProt P61088: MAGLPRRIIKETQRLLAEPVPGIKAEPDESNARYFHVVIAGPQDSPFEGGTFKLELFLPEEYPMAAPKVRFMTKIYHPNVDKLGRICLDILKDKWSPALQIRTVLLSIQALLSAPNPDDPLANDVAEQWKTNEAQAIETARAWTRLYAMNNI
# UniProt Q5JXB2: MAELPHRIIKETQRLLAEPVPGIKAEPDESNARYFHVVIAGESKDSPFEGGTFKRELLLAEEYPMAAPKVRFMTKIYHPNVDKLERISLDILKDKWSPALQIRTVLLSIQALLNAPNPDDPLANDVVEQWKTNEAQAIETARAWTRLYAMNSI
# UniProt Q96J42: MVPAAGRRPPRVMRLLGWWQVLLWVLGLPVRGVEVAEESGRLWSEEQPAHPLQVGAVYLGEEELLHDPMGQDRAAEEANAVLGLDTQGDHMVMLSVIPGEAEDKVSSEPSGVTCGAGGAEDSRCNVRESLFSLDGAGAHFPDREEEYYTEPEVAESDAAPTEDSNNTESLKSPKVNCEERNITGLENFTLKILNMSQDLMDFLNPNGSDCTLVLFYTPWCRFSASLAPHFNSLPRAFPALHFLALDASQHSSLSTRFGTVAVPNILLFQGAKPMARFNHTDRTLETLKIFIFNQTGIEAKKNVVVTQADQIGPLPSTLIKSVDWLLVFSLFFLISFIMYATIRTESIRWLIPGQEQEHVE
# UniProt Q12792, whole entry, looked up: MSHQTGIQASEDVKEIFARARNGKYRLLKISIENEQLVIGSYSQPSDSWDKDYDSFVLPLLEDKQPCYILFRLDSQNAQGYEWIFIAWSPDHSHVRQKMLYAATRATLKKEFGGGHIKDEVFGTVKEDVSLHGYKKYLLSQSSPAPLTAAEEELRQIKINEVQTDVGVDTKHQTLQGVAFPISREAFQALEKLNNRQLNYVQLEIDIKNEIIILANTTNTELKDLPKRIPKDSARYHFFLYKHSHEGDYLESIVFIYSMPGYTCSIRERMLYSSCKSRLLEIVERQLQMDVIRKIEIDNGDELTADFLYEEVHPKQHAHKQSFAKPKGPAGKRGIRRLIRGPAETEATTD
# UniProt Q9Y385: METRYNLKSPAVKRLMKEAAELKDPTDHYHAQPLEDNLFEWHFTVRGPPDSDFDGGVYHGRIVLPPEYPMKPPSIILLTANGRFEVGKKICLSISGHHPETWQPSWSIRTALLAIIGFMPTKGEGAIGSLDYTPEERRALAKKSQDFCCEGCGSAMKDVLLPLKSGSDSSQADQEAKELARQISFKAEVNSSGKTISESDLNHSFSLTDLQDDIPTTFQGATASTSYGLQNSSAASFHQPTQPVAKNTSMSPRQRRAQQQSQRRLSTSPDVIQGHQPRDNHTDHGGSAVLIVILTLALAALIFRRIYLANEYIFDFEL
# UniProt Q9H6E5: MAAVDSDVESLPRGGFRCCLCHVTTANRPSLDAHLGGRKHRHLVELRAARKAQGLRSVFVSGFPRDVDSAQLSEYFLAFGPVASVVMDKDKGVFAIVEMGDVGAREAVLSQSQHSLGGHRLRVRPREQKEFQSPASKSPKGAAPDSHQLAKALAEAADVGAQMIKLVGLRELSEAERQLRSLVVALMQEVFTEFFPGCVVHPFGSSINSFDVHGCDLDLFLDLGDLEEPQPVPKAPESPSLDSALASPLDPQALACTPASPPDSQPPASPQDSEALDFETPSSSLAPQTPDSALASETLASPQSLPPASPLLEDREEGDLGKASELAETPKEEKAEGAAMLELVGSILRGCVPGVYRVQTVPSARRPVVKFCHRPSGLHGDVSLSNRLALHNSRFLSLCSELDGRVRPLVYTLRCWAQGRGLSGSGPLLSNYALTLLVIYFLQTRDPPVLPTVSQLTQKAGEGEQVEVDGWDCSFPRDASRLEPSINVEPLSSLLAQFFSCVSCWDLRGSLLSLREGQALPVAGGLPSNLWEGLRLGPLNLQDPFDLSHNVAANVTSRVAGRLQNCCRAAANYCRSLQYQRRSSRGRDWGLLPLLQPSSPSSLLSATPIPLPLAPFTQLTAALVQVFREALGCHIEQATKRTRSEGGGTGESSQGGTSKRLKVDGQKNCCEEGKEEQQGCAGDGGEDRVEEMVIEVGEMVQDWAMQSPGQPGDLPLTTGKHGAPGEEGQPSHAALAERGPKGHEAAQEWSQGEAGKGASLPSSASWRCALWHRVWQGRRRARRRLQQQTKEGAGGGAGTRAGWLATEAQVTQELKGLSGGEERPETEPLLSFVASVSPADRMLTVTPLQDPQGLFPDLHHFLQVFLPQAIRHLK
# UniProt Q6DKK2: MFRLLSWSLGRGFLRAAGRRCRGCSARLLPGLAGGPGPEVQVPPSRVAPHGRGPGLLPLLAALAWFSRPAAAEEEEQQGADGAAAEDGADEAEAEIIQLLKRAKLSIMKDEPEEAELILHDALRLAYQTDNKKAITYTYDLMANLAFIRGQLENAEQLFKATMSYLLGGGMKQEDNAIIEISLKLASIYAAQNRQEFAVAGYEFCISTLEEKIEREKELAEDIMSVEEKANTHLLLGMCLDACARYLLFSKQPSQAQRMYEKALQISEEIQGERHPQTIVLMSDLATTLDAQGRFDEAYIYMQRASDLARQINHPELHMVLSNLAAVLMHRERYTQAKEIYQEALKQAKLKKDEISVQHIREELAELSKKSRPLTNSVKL
# UniProt P61081: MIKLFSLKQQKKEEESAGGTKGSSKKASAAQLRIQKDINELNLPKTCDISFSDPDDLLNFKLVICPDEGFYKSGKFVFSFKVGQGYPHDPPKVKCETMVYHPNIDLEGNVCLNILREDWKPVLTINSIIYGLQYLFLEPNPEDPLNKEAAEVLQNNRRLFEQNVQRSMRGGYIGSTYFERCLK
# UniProt Q3KQV9: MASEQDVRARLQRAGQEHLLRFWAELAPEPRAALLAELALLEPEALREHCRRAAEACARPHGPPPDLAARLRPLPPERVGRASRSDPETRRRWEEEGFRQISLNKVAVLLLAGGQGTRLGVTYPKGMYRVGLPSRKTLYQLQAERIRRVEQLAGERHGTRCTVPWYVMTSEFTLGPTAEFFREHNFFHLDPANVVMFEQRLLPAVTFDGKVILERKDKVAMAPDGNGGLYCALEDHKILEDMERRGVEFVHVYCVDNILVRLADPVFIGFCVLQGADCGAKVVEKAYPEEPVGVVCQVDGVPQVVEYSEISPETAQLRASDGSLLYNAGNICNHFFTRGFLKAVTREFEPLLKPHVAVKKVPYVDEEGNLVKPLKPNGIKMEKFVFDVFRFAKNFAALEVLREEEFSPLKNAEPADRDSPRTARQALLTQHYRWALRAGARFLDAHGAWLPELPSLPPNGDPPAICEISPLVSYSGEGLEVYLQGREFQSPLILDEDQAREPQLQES
# UniProt O15042: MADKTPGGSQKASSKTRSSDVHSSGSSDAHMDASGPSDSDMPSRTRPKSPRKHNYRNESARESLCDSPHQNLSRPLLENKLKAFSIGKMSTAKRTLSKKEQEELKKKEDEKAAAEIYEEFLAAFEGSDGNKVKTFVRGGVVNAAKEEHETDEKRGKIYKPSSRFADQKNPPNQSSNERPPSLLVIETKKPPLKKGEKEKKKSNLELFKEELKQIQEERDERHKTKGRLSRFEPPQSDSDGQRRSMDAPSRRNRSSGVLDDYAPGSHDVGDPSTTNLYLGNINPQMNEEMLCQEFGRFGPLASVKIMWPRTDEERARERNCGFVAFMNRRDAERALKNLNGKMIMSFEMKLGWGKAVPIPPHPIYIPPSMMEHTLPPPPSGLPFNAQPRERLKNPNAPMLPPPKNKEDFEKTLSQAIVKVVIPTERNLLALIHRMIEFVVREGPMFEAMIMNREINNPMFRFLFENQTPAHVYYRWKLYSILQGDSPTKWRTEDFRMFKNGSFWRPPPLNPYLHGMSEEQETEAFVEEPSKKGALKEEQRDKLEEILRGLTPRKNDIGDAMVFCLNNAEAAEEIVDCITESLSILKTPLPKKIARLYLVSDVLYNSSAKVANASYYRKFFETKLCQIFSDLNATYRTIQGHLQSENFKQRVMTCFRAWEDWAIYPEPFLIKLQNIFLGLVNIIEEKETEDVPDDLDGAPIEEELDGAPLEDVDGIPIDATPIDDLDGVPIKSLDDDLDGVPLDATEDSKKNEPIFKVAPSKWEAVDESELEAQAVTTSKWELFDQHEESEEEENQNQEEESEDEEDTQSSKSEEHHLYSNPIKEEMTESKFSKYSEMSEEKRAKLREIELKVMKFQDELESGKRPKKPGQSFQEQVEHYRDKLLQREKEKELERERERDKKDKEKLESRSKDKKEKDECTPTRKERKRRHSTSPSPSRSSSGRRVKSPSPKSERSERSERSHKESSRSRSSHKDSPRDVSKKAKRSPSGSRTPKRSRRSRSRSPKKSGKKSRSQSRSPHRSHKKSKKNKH
# UniProt Q9UBT2: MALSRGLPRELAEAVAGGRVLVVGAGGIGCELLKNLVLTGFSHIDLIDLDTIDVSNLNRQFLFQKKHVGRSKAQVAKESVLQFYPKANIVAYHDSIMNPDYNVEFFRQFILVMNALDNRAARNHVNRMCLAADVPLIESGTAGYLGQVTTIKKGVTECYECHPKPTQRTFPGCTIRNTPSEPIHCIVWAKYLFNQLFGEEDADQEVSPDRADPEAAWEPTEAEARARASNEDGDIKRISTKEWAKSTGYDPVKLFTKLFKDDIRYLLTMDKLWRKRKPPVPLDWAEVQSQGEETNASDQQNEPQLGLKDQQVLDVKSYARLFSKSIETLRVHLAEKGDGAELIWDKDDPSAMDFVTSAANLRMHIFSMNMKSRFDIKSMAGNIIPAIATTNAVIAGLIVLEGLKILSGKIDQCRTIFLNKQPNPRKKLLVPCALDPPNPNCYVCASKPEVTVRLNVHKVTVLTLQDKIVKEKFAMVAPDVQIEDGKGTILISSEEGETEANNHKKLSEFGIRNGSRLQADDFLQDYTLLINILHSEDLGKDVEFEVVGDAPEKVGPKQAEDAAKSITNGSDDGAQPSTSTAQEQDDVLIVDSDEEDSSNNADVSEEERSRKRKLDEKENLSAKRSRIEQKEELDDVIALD
# The list shows a part of the results.
# Key:
# Assay in all cases: log2 fold change, soluble protein after heating vs DMSO (PISA); higher = thermal stabilisation; K562 cells, 10 uM, 30 min; active = over 0.2 and 3.5 SD of the protein, either way, in both replicates (recomputed)
# [1] = compound: Cc1ccc(NC(=O)c2ccc(CN3CC[C@H](N(C)C)C3)c(C(F)(F)F)c2)cc1Nc1nccc(-c2cncnc2)n1 [bafetinib]
# How it was run: (§1)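 K562 cells at 2×10^6 cells/mL were treated for 30 min with 10 μM compound, and aliquots were heated for 3 min over 48°C-58°C before pooling. Extraction used PBS with 0.5% NP-40 at 4°C, and soluble protein was the supernatant after 21,000xg for 90 min, measured by TMTpro 16plex LC-MS/MS with channel sums equalised. Thermal stability values, relative to control samples and from duplicates, are log2 fold changes.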
# [2] = compound: Cc1cccc(CC(=O)N2CCc3c2ccc(-c2cn(C)c4ncnc(N)c24)c3F)n1
# How it was run: as §1
# [3] = compound: Cc1cn(-c2cc(NC(=O)c3ccc(C)c(Nc4nccc(-c5cccnc5)n4)c3)cc(C(F)(F)F)c2)cn1 [nilotinib]
# How it was run: as §1
# [4] = compound: Cc1nc(Nc2n[nH]c3c2CN(C(=O)N[C@H](CN(C)C)c2ccccc2)C3(C)C)c2sccc2n1
# How it was run: as §1
# [5] = compound: Cc1nc(Nc2ncc(C(=O)Nc3c(C)cccc3Cl)s2)cc(N2CCN(CCO)CC2)n1 [dasatinib]
# How it was run: as §1
# [6] = compound: Cc1ncc(-c2ccnc(Nc3ccc(S(C)(=O)=O)cc3)n2)n1C(C)C
# How it was run: as §1
# [7] = compound: Cn1cc(-c2ccc3c(c2)CCN3C(=O)Cc2cccc(C(F)(F)F)c2)c2c(N)ncnc21
# How it was run: as §1
# [8] = compound: Cn1cc(-c2ccc3nnc(C(F)(F)c4ccc5ncccc5c4)n3n2)cn1
# How it was run: as §1
# [9] = compound: Cn1cncc1[C@@](N)(c1ccc(Cl)cc1)c1ccc2c(c1)c(-c1cccc(Cl)c1)cc(=O)n2C [tipifarnib]
# How it was run: as §1
# [10] = compound: FC(F)(F)c1ccc(/C=C/c2nc(COc3ccc(CCCCn4ccnn4)cc3)co2)cc1 [mubritinib]
# How it was run: as §1
# [11] = compound: NC(=O)Nc1cc(-c2cccc(F)c2)sc1C(=O)N[C@H]1CCCNC1
# How it was run: as §1
# [12] = compound: NC(=O)c1cnc(N[C@@H]2CCCC[C@@H]2N)nc1Nc1cccc(-n2nccn2)c1
# How it was run: as §1
# [13] = compound: NC1(c2ccc(-c3nc4ccn5c(=O)[nH]nc5c4cc3-c3ccccc3)cc2)CCC1
# How it was run: as §1
# [14] = compound: NCC(=O)Nc1ccc(-n2nc(C(F)(F)F)cc2-c2ccc3c(ccc4ccccc43)c2)cc1
# How it was run: as §1
# [15] = compound: Nc1ccccc1NC(=O)c1ccc(CNC(=O)OCc2cccnc2)cc1 [entinostat]
# How it was run: as §1
# [16] = compound: O=C(CCCCCCC(=O)Nc1ccccc1)NO [vorinostat]
# How it was run: as §1
# [17] = compound: O=C(CCCCCCNC(=O)c1cnc(N(c2ccccc2)c2ccccc2Cl)nc1)NO [citarinostat]
# How it was run: as §1
# [18] = compound: O=C(O)c1ccc2c(c1)nc(Nc1cccc(Cl)c1)c1ccncc12 [silmitasertib]
# How it was run: as §1
# [19] = compound: O=C1NC(=O)C(c2cnc3ccccn23)=C1c1cn2c3c(cc(F)cc13)CN(C(=O)N1CCCCC1)CC2
# How it was run: as §1
# [20] = compound: c1cc(OCCN2CCCCC2)cc(-c2n[nH]c3ccc(-c4nnc[nH]4)cc23)c1
# How it was run: as §1
Target,log2 fold change [1],log2 fold change [2],log2 fold change [3],log2 fold change [4],log2 fold change [5],log2 fold change [6],log2 fold change [7],log2 fold change [8],log2 fold change [9],log2 fold change [10],log2 fold change [11],log2 fold change [12],log2 fold change [13],log2 fold change [14],log2 fold change [15],log2 fold change [16],log2 fold change [17],log2 fold change [18],log2 fold change [19],log2 fold change [20]
UBA1 (UniProt P22314),inactive: 0.034,inactive: 0.187,inactive: -0.089,inactive: -0.062,inactive: -0.216,inactive: 0.062,inactive: 0.027,inactive: 0.121,inactive: -0.235,active: 0.395,inactive: -0.044,inactive: -0.112,inactive: -0.275,inactive: -0.101,inactive: 0.159,inactive: 0.167,inactive: 0.125,inactive: 0.018,inactive: -0.013,inactive: -0.028
TUBB (UniProt P07437),inactive: -0.005,inactive: -0.032,inactive: 0.03,inactive: 0.018,inactive: -0.054,inactive: -0.019,inactive: 0.076,inactive: 0.003,inactive: 0.011,inactive: 0.032,inactive: 0.023,inactive: -0.031,inactive: -0.035,inactive: 0.003,inactive: -0.019,inactive: 0.032,inactive: 0.005,inactive: -0.058,inactive: -0.026,inactive: -0.052
UBE2N (UniProt P61088),inactive: 0,inactive: -0.033,inactive: -0.024,inactive: 0.025,inactive: -0.011,inactive: -0.029,inactive: 0.121,inactive: 0.015,inactive: -0.103,inactive: -0.024,inactive: -0.071,inactive: -0.052,inactive: -0.045,inactive: -0.02,inactive: 0.093,inactive: -0.072,inactive: 0.01,inactive: 0.013,inactive: -0.135,inactive: -0.034
TSSC4 (UniProt Q9Y5U2),inactive: -0.032,inactive: -0.194,inactive: 0.022,inactive: 0.067,inactive: -0.045,inactive: -0.021,inactive: -0.015,inactive: -0.11,inactive: 0.056,inactive: -0.096,inactive: 0.035,inactive: 0.02,inactive: 0.072,inactive: 0.09,inactive: -0.022,inactive: 0.084,inactive: -0.059,inactive: 0.074,inactive: 0.114,inactive: -0.003
UBE2NL (UniProt Q5JXB2),inactive: -0.028,inactive: 0.027,inactive: 0.005,inactive: -0.048,inactive: 0.079,inactive: -0.018,inactive: 0.139,inactive: 0.05,inactive: -0.06,inactive: 0.052,inactive: 0.063,inactive: -0.004,inactive: -0.033,inactive: -0.049,inactive: 0.099,inactive: 0,inactive: 0.095,inactive: -0.045,inactive: 0.046,inactive: 0.018
TXNDC15 (UniProt Q96J42),inactive: -0.002,inactive: -0.063,inactive: 0.059,inactive: -0.032,inactive: -0.084,inactive: -0.028,inactive: 0.018,inactive: 0.035,inactive: 0.003,inactive: -0.101,inactive: 0,inactive: 0.065,inactive: -0.179,inactive: -0.096,inactive: 0.032,inactive: 0.042,inactive: 0.014,inactive: 0.072,inactive: -0.005,inactive: 0.006
TWF1 (UniProt Q12792),inactive: 0.05,inactive: -0.034,inactive: 0.144,inactive: 0.02,inactive: -0.005,inactive: 0.025,inactive: 0.048,inactive: -0.06,inactive: -0.085,inactive: 0.17,inactive: -0.053,inactive: 0.014,inactive: -0.063,inactive: -0.163,inactive: -0.017,inactive: -0.017,inactive: 0.015,inactive: -0.011,inactive: -0.038,inactive: -0.011
UBE2J1 (UniProt Q9Y385),inactive: 0.108,inactive: 0.023,inactive: -0.076,inactive: -0.09,inactive: -0.028,inactive: -0.189,inactive: -0.053,inactive: 0.003,inactive: -0.056,inactive: 0.132,inactive: 0.031,inactive: -0.038,inactive: 0.07,inactive: 0.017,inactive: -0.077,inactive: -0.019,inactive: 0.041,inactive: 0.042,active: -0.375,inactive: -0.09
TUT1 (UniProt Q9H6E5),inactive: -0.055,–,–,–,–,–,–,–,–,–,–,–,–,–,–,–,–,–,–,–
TTC19 (UniProt Q6DKK2),inactive: -0.043,inactive: 0.042,inactive: -0.045,inactive: -0.041,inactive: -0.023,inactive: 0.034,inactive: 0.023,inactive: 0.036,inactive: -0.077,inactive: 0.181,inactive: 0.012,inactive: -0.011,inactive: -0.133,inactive: -0.071,inactive: 0.015,inactive: 0.01,inactive: 0.045,inactive: -0.011,inactive: -0.013,inactive: -0.033
UBE2M (UniProt P61081),inactive: -0.05,inactive: -0.003,inactive: -0.048,inactive: -0.007,inactive: -0.092,inactive: -0.011,inactive: 0.101,inactive: 0.003,inactive: -0.049,inactive: 0.052,inactive: -0.046,inactive: -0.038,inactive: -0.089,inactive: -0.055,inactive: 0.024,inactive: 0.005,inactive: 0.07,inactive: -0.003,inactive: -0.07,inactive: -0.004
TWF2 (UniProt Q6IBS0),inactive: 0.025,inactive: 0.113,inactive: 0.026,inactive: -0.047,inactive: 0.01,inactive: 0.037,inactive: 0.082,inactive: 0.062,inactive: -0.057,inactive: 0.174,inactive: 0.028,inactive: -0.029,inactive: -0.13,inactive: -0.026,inactive: 0,inactive: 0.009,inactive: 0.005,inactive: 0.028,inactive: -0.015,inactive: -0.02
UAP1L1 (UniProt Q3KQV9),inactive: -0.04,inactive: -0.045,inactive: -0.085,inactive: 0.036,inactive: -0.028,inactive: 0.03,inactive: 0.02,inactive: 0.064,inactive: -0.006,inactive: 0.014,inactive: 0.014,inactive: -0.025,inactive: -0.107,inactive: -0.074,inactive: 0.019,inactive: 0.02,inactive: -0.002,inactive: -0.026,inactive: -0.048,inactive: -0.007
TUBAL3 (UniProt A6NHL2),inactive: 0.167,inactive: 0.049,inactive: -0.144,inactive: 0.027,inactive: 0.051,inactive: -0.029,inactive: 0.005,inactive: -0.095,inactive: -0.097,inactive: -0.01,inactive: 0,inactive: -0.082,inactive: -0.006,inactive: 0.031,inactive: 0.061,inactive: 0.037,inactive: -0.06,inactive: 0.087,inactive: 0.059,inactive: -0.291
U2SURP (UniProt O15042),inactive: 0.131,inactive: 0.033,inactive: -0.152,inactive: -0.339,inactive: -0.136,inactive: 0.014,inactive: -0.006,inactive: 0.031,inactive: 0.037,inactive: -0.037,inactive: -0.032,inactive: -0.051,inactive: -0.029,inactive: -0.136,inactive: 0.159,inactive: 0.13,inactive: 0.117,inactive: -0.002,inactive: -0.032,inactive: -0.116
TUFM (UniProt P49411),inactive: 0.026,inactive: 0.059,inactive: -0.06,inactive: -0.019,inactive: -0.133,inactive: -0.04,inactive: 0.099,inactive: 0.047,inactive: -0.066,inactive: -0.022,inactive: 0.092,inactive: -0.018,inactive: -0.106,inactive: -0.048,inactive: 0.002,inactive: 0.034,inactive: 0.084,inactive: -0.105,inactive: -0.143,inactive: -0.01
UBA2 (UniProt Q9UBT2),inactive: 0.007,inactive: -0.018,inactive: 0.037,inactive: 0.028,inactive: -0.013,inactive: 0.009,inactive: 0,inactive: 0.031,inactive: -0.06,inactive: 0.163,inactive: -0.006,inactive: -0.048,inactive: -0.039,inactive: -0.053,inactive: 0.03,inactive: 0.004,inactive: 0.036,inactive: 0.078,inactive: -0.047,inactive: 0.014

# Copied from the listing (3 entries):
Target,log2 fold change [1],log2 fold change [2],log2 fold change [3],log2 fold change [4],log2 fold change [5],log2 fold change [6],log2 fold change [7],log2 fold change [8],log2 fold change [9],log2 fold change [10],log2 fold change [11],log2 fold change [12],log2 fold change [13],log2 fold change [14],log2 fold change [15],log2 fold change [16],log2 fold change [17],log2 fold change [18],log2 fold change [19],log2 fold change [20]
UBE2NL (UniProt Q5JXB2),inactive: -0.028,inactive: 0.027,inactive: 0.005,inactive: -0.048,inactive: 0.079,inactive: -0.018,inactive: 0.139,inactive: 0.05,inactive: -0.06,inactive: 0.052,inactive: 0.063,inactive: -0.004,inactive: -0.033,inactive: -0.049,inactive: 0.099,inactive: 0,inactive: 0.095,inactive: -0.045,inactive: 0.046,inactive: 0.018
TXNDC15 (UniProt Q96J42),inactive: -0.002,inactive: -0.063,inactive: 0.059,inactive: -0.032,inactive: -0.084,inactive: -0.028,inactive: 0.018,inactive: 0.035,inactive: 0.003,inactive: -0.101,inactive: 0,inactive: 0.065,inactive: -0.179,inactive: -0.096,inactive: 0.032,inactive: 0.042,inactive: 0.014,inactive: 0.072,inactive: -0.005,inactive: 0.006
TWF1 (UniProt Q12792),inactive: 0.05,inactive: -0.034,inactive: 0.144,inactive: 0.02,inactive: -0.005,inactive: 0.025,inactive: 0.048,inactive: -0.06,inactive: -0.085,inactive: 0.17,inactive: -0.053,inactive: 0.014,inactive: -0.063,inactive: -0.163,inactive: -0.017,inactive: -0.017,inactive: 0.015,inactive: -0.011,inactive: -0.038,inactive: -0.011
